# Data source: PubChem BioAssay AID1508597 (Cure First, 2020)
# Assay: 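Survival screen with siRNA in ovarian cancer cells derived from patients, with or without rucaparib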 (primary screen)
# Cells: human ovarian carcinoma lines grown from tumours: OCI-P5x (papillary serous) and OCI-C5x (clear cell)
# Knock-down reagent: siRNA pool against human genes, 1.25 pmol siRNA per well
# Time to read-out: 72 h or 96 h, depending on the cell culture
# Treatment: rucaparib 20 µM (about IC30) or vehicle, present until read-out
# Rucaparib or vehicle: Rucaparib
# Cell line: OCI-P5x (serous)
# Detection: 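ATP luminescence measured at 72 or 96 h according to the culture, then normalised and expressed as percent viability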
# Direction: viability, normalised: higher = more viable cells remaining
# Call rule: 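Active when normalised viability falls below 80 percent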
# Meaning of the calls: active = viability under 80%; inactive = viability 80% or more
# This is a random part of the about 2,100 reagents, in one setting of the screen. 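Calls flag viability under 80% in either arm, not effects specific to rucaparib; the reference for percent is not stated.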 Entries without a mark were called inactive. Some reagents were tested in more than one well and are listed for each. Reagent sequences are not shown. Not given: the 100% reference.
target gene,technical replicate,"viability, normalised (%)"
NANOG,1,57.8 (active)
NANOG,2,53.7 (active)
NANOG,3,69.9 (active)
SLC1A2,1,34 (active)
SLC1A2,2,52 (active)
SLC1A2,3,52.2 (active)
TPP1,1,73 (active)
TPP1,2,70.7 (active)
TPP1,3,62.2 (active)
NLGN2,1,51 (active)
NLGN2,2,47.9 (active)
NLGN2,3,46.7 (active)
RNF8,1,29.4 (active)
RNF8,1,67.9 (active)
RNF8,2,62.1 (active)
RNF8,2,28.2 (active)
RNF8,3,26.8 (active)
RNF8,3,60.8 (active)
CHMP2A,1,36.8 (active)
CHMP2A,2,39.9 (active)
CHMP2A,3,45.1 (active)
SLK,1,69.5 (active)
SLK,2,88.3
SLK,3,81.5
MAPK1,1,76.2 (active)
MAPK1,2,74.8 (active)
MAPK1,3,61.8 (active)
CAMK2A,1,113
CAMK2A,2,96.2
CAMK2A,3,104
CRAMP1,1,86.9
CRAMP1,2,64.1 (active)
CRAMP1,3,73.4 (active)
SUZ12,1,80
SUZ12,2,73 (active)
SUZ12,3,72.3 (active)
PRKAR2A,1,97.7
PRKAR2A,2,110
PRKAR2A,3,101
CDK10,1,108
CDK10,2,101
CDK10,3,96
SMC1A,1,145
SMC1A,1,51.6 (active)
SMC1A,2,169
SMC1A,2,45.8 (active)
SMC1A,3,153
SMC1A,3,49.3 (active)
CETN2,1,47.8 (active)
CETN2,2,53.7 (active)
CETN2,3,44.8 (active)
MLLT10,1,46.1 (active)
MLLT10,2,49.6 (active)
MLLT10,3,46.8 (active)
TDRD7,1,58.7 (active)
TDRD7,2,57.7 (active)
TDRD7,3,46.8 (active)

Part of the list above, reformatted.
SLC1A2, technical replicate 1
- viability, normalised (%): 34 (active)

SLC1A2, technical replicate 2
- viability, normalised (%): 52 (active)

SLC1A2, technical replicate 3
- viability, normalised (%): 52.2 (active)
